Results deposited as PubChem BioAssay AID652259 (Drosophila RNAi Screening Center, 2013)

Screen: 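Knock-downs that push a Wingless-driven reporter up or down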 (primary screen)
Cell system: Drosophila clone 8 imaginal disc epithelial cells
Knock-down reagent: long dsRNA against Drosophila genes
Challenge: pathway stimulated by co-transfected Wingless expression plasmid
Measurement: 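Firefly luciferase from a tcf-site Wingless reporter, measured alongside co-transfected Renilla luciferase that tracks transfection; pathway stimulated by a Wingless plasmid; the firefly-to-Renilla ratio is not deposited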
Scale: firefly reporter light: higher = more Wg reporter light, before normalisation; Renilla control light: higher = more transfected or surviving cells
Active means: 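Strong candidates differ from their plate mean by at least two out of four per-plate statistical tests; weak candidates meet just one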
Meaning of the calls: active = candidate regulator (raises or lowers reporter); inactive = not a candidate
The screen tested about 22,000 reagents; below is an unselected part of those that have a named target and a result. Of all reagents, 233 (1.1%) were called active. 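Light values are raw, unnormalised plate reads; the ratio scores behind the reporter calls were not deposited.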 The numbers tell different reagents against one gene apart. Names joined by + are all predicted targets of the reagent. Not stated in the record: the amount of reagent, the time to read-out, the dose of the treatment.

With knock-down of Cpr78Cb the results were firefly reporter light, replicate 1 = 12978; Renilla control light, replicate 1 = 4096; inactive.
With knock-down of side-II #1 the results were firefly reporter light, replicate 1 = 21973; Renilla control light, replicate 1 = 12116; inactive.
Against side-II #2, the values are firefly reporter light, replicate 1 = 17104; Renilla control light, replicate 1 = 10714; inactive.
side-II #3 gave firefly reporter light, replicate 1 = 3024; firefly reporter light, replicate 2 = 6763; Renilla control light, replicate 1 = 1604; Renilla control light, replicate 2 = 3683; inactive.
For side-II #4, the values are firefly reporter light, replicate 1 = 3734; firefly reporter light, replicate 2 = 10202; Renilla control light, replicate 1 = 2163; Renilla control light, replicate 2 = 5941; inactive.
Silencing of side-II #5 came out at: firefly reporter light, replicate 1 = 4192; firefly reporter light, replicate 2 = 11651; Renilla control light, replicate 1 = 1290; Renilla control light, replicate 2 = 5936; inactive.
Against side-II #6 the deposit lists firefly reporter light, replicate 1 = 3.81e5; firefly reporter light, replicate 2 = 3.91e5; Renilla control light, replicate 1 = 1.26e5; Renilla control light, replicate 2 = 95227; inactive.
After knock-down of Not1 #1, the screen gave firefly reporter light, replicate 1 = 3371; firefly reporter light, replicate 2 = 11884; Renilla control light, replicate 1 = 576; Renilla control light, replicate 2 = 2988; inactive.
After knock-down of Not1 #2, the screen gave firefly reporter light, replicate 1 = 8788; Renilla control light, replicate 1 = 1673; inactive.
Against CG9346, the values are firefly reporter light, replicate 1 = 15009; Renilla control light, replicate 1 = 2616; inactive.
CG13551 gave firefly reporter light, replicate 1 = 4.59e5; firefly reporter light, replicate 2 = 4.36e5; Renilla control light, replicate 1 = 2.04e5; Renilla control light, replicate 2 = 2.25e5; inactive.
Against qkr58E-1, the entry reads firefly reporter light, replicate 1 = 6269; Renilla control light, replicate 1 = 1449; inactive.
For Taf1 the deposit lists reporter change call, replicate 1 = Wg reporter activity raised; firefly reporter light, replicate 1 = 25175; Renilla control light, replicate 1 = 1461; active.
After knock-down of CG6041, the record shows firefly reporter light, replicate 1 = 16137; Renilla control light, replicate 1 = 8856; inactive.
Depletion of CG18636 came out at: firefly reporter light, replicate 1 = 2314; firefly reporter light, replicate 2 = 6424; Renilla control light, replicate 1 = 1072; Renilla control light, replicate 2 = 3349; inactive.
After knock-down of CG13679 #1 the results were firefly reporter light, replicate 1 = 2616; firefly reporter light, replicate 2 = 13136; Renilla control light, replicate 1 = 1883; Renilla control light, replicate 2 = 5318; inactive.
Depletion of CG13679 #2 gave: firefly reporter light, replicate 1 = 7.39e5; firefly reporter light, replicate 2 = 7.02e5; Renilla control light, replicate 1 = 2.67e5; Renilla control light, replicate 2 = 2.60e5; inactive.
CG3679 showed firefly reporter light, replicate 1 = 1867; firefly reporter light, replicate 2 = 5794; Renilla control light, replicate 1 = 1009; Renilla control light, replicate 2 = 2930; inactive.
For CG13801 the deposit lists firefly reporter light, replicate 1 = 4256; Renilla control light, replicate 1 = 2693; inactive.
With knock-down of Ir52a, the screen gave firefly reporter light, replicate 1 = 6429; Renilla control light, replicate 1 = 2122; inactive.
CG14907 + Mettl4 #1 gave firefly reporter light, replicate 1 = 11340; Renilla control light, replicate 1 = 3603; inactive.
Against CG14907 + Mettl4 #2, the values are firefly reporter light, replicate 1 = 13843; Renilla control light, replicate 1 = 3434; inactive.
For rib the deposit lists firefly reporter light, replicate 1 = 7536; Renilla control light, replicate 1 = 2976; inactive.
For CG31278, the entry reads firefly reporter light, replicate 1 = 14053; Renilla control light, replicate 1 = 3579; inactive.
CG5645 gave firefly reporter light, replicate 1 = 5622; Renilla control light, replicate 1 = 1984; inactive.

Ordered by “Renilla control light, replicate 1” (ascending): some entries from above.
qkr58E-1: firefly reporter light, replicate 1 = 6269; Renilla control light, replicate 1 = 1449; call = inactive
CG9346: firefly reporter light, replicate 1 = 15009; Renilla control light, replicate 1 = 2616; call = inactive
CG13551: firefly reporter light, replicate 1 = 4.59e5; firefly reporter light, replicate 2 = 4.36e5; Renilla control light, replicate 1 = 2.04e5; Renilla control light, replicate 2 = 2.25e5; call = inactive
